# The supplement of paper PMC8728848
# The other results are listed elsewhere or left out.
# Legend:
# Experiment in all cases: glycan array binding signal (z-score within array); higher = stronger binding
# Conditions in all cases: glycan notation: IUPAC condensed, linker removed
# [1] = biological target: Neu5Ac(a2-6)Gal(b1-4)GlcNAc(b1-2)Man(a1-6)[Gal(b1-4)GlcNAc(b1-2)Man(a1-3)]Man(b1-4)GlcNAc(b1-4)GlcNAc
# In short: (§1)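 From the Consortium for Functional Glycomics database, 3228 arrays were curated, keeping only those whose protein sequence was available. Binding is given as a within-array Z-score averaged across arrays sharing a protein sequence and across linkers. Negative Z-scores can be read as non-binding.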
# [2] = biological target: Neu5Ac(a2-6)Gal(b1-4)GlcNAc(b1-2)Man(a1-6)[GlcNAc(b1-2)Man(a1-3)]Man(b1-4)GlcNAc(b1-4)GlcNAc
# In short: as §1
# [3] = biological target: Neu5Ac(a2-6)Gal(b1-4)GlcNAc(b1-2)Man(a1-6)[Man(a1-3)]Man(b1-4)GlcNAc(b1-4)GlcNAc
# In short: as §1
# [4] = biological target: Neu5Ac(a2-6)Gal(b1-4)GlcNAc(b1-3)Gal(b1-3)GlcNAc
# In short: as §1
# [5] = biological target: Neu5Ac(a2-6)Gal(b1-4)GlcNAc(b1-3)Gal(b1-4)GlcNAc
# In short: as §1
# [6] = biological target: Neu5Ac(a2-6)Gal(b1-4)GlcNAc(b1-3)Gal(b1-4)GlcNAc(b1-3)Gal(b1-4)GlcNAc
# In short: as §1
# [7] = biological target: Neu5Ac(a2-6)Gal(b1-4)GlcNAc(b1-3)Gal(b1-4)[Fuc(a1-3)]GlcNAc(b1-3)Gal(b1-4)[Fuc(a1-3)]GlcNAc
# In short: as §1
# [8] = biological target: Neu5Ac(a2-6)Gal(b1-4)GlcNAc(b1-3)GalNAc
# In short: as §1
# [9] = biological target: Neu5Ac(a2-6)Gal(b1-4)GlcNAc6S
# In short: as §1
# Neu5Ac(a2-6)GalNAc = biological target: Neu5Ac(a2-6)GalNAc
# In short: as §1
# [10] = biological target: Neu5Ac(a2-6)GalNAc(b1-4)GlcNAc
# In short: as §1
# [11] = biological target: Neu5Ac(a2-6)GlcNAc(b1-4)GlcNAc
# In short: as §1
# [12] = biological target: Neu5Ac(a2-6)GlcNAc(b1-4)GlcNAc(b1-4)GlcNAc
# In short: as §1
# Neu5Ac(a2-8)Neu5Ac = biological target: Neu5Ac(a2-8)Neu5Ac
# In short: as §1
# [13] = biological target: Neu5Ac(a2-8)Neu5Ac(a2-3)Gal(b1-3)GalNAc(b1-4)[Neu5Ac(a2-8)Neu5Ac(a2-3)]Gal(b1-4)Glc
# In short: as §1
# [14] = biological target: Neu5Ac(a2-8)Neu5Ac(a2-3)Gal(b1-4)Glc
# In short: as §1
# [15] = biological target: Neu5Ac(a2-8)Neu5Ac(a2-3)[Gal(b1-3)GalNAc(b1-4)]Gal(b1-4)Glc
# In short: as §1
# [16] = biological target: Neu5Ac(a2-8)Neu5Ac(a2-3)[GalNAc(b1-4)]Gal(b1-4)Glc
# In short: as §1
# [17] = biological target: Neu5Ac(a2-8)Neu5Ac(a2-8)Neu5Ac
# In short: as §1
# [18] = biological target: Neu5Ac(a2-8)Neu5Ac(a2-8)Neu5Ac(a2-3)Gal(b1-4)Glc
# In short: as §1
# [19] = biological target: Neu5Ac(a2-8)Neu5Ac(a2-8)Neu5Ac(a2-3)[GalNAc(b1-4)]Gal(b1-4)Glc
# In short: as §1
# [20] = biological target: Neu5Ac(a2-8)Neu5Ac(a2-8)Neu5Ac(a2-8)Neu5Ac(a2-3)[GalNAc(b1-4)]Gal(b1-4)Glc
# In short: as §1
# [21] = biological target: Neu5Ac(b2-6)Gal(b1-4)GlcNAc
# In short: as §1
# Neu5Ac(b2-6)GalNAc = biological target: Neu5Ac(b2-6)GalNAc
# In short: as §1
# [22] = biological target: Neu5Ac9Ac(a2-3)Gal(b1-3)GlcNAc
# In short: as §1
# [23] = biological target: Neu5Ac9Ac(a2-3)Gal(b1-4)GlcNAc
# In short: as §1
# [24] = biological target: Neu5Ac9Ac(a2-6)Gal(b1-4)GlcNAc
# In short: as §1
# [25] = biological target: Neu5Gc(a2-3)Gal(b1-3)GlcNAc
# In short: as §1
# [26] = biological target: Neu5Gc(a2-3)Gal(b1-3)[Fuc(a1-4)]GlcNAc
# In short: as §1
# Neu5Gc(a2-3)Gal(b1-4)Glc = biological target: Neu5Gc(a2-3)Gal(b1-4)Glc
# In short: as §1
# [27] = biological target: Neu5Gc(a2-3)Gal(b1-4)GlcNAc
# In short: as §1
# [28] = biological target: Neu5Gc(a2-3)Gal(b1-4)[Fuc(a1-3)]GlcNAc
# In short: as §1
# [29] = biological target: Neu5Gc(a2-6)Gal(b1-4)GlcNAc
# In short: as §1
# Neu5Gc(a2-6)GalNAc = biological target: Neu5Gc(a2-6)GalNAc
# In short: as §1
# [30] = biological target: Neu5Gc(b2-6)Gal(b1-4)GlcNAc
# In short: as §1
binder,measurement,setting,value
"Flo11 (Saccharomyces cerevisiae), P08640 (protein) MQRPFLLAYLVLSLLFNSALGFPTALVPRGSSEGTSCNSIVNGCPNLDFNWHMDQQNIMQYTLDVTSVSWVQDNTYQITIHVKGKENIDLKYLWSLKIIGVTGPKGTVQLYGYNENTYLIDNPTDFTATFEVYATQDVNSCQVWMPNFQIQFEYLQGSAAQYASSWQWGTTSFDLSTGCNNYDNQGHSQTDFPGFYWNIDCDNNCGGTKSSTTTSSTSESSTTTSSTSESSTTTSSTSESSTTTSSTSESSTSSSTTAPATPTTTSCTKEKPTPPTTTSCTKEKPTPPHHDTTPCTKKKTTTSKTCTKKTTTPVPTPSSSTTESSSAPVPTPSSSTTESSSAPVTSSTTESSSAPVPTPSSSTTESSSAPVTSSTTESSSAPVTSSTTESSSAPVPTPSSSTTESSSAPVTSSTTESSSAPVTSSTTESSSAPVTSSTTESSSAPVTSSTTESSSAPVPTPSSSTTESSSAPVTSSTTESSSAPVPTPSSSTTESSSAPVTSSTTESSSAPVPTPSSSTTESSSAPAPTPSSSTTESSSAPVTSSTTESSSAPVPTPSSSTTESSSTPVTSSTTESSSAPVPTPSSSTTESSSAPVPTPSSSTTESSSAPAPTPSSSTTESSSAPVTSSTTESSSAPVPTPSSSTTESSSAPVPTPSSSTTESSSAPVPTPSSSTTESSSAPVTSSTTESSSAPVTSSTTESSSAPVPTPSSSTTESSSAPVPTPSSSTTESSSAPVPTPSSSTTESSSAPVTSSTTESSSAPVPTPSSSTTESSSAPVPTPSSSTTESSSAPVPTPSSSTTESSVAPVPTPSSSSNITSSAPSSTPFSSSTESSSVPVPTPSSSTTESSSAPVSSSTTESSVAPVPTPSSSSNITSSAPSSIPFSSTTESFSTGTTVTPSSSKYPGSQTETSVSSTTETTIVPTKTTTSVTTPSTTTITTTVCSTGTNSAGETTSGCSPKTVTTTVPTTTTTSVTTSSTTTITTTVCSTGTNSAGETTSGCSPKTITTTVPCSTSPSETASESTTTSPTTPVTTVVSTTVVTTEYSTSTKPGGEITTTFVTKNIPTTYLTTIAPTPSVTTVTNFTPTTITTTVCSTGTNSAGETTSGCSPKTVTTTVPCSTGTGEYTTEATTLVTTAVTTTVVTTESSTGTNSAGKTTTGYTTKSVPTTYVTTLAPSAPVTPATNAVPTTITTTECSAATNAAGETTSVCSAKTIVSSASAGENTAPSATTPVTTAIPTTVITTESSVGTNSAGETTTGYTTKSIPTTYITTLIPGSNGAKNYETVATATNPISIKTTSQLATTASASSVAPVVTSPSLTGPLQSASGSAVATYSVPSISSTYQGAANIKVLGNFMWLLLALPVVF",glycan array binding signal (z-score),[1],-0.063
same,glycan array binding signal (z-score),[2],0.103
same,glycan array binding signal (z-score),[3],-1.03
same,glycan array binding signal (z-score),[4],-0.783
same,glycan array binding signal (z-score),[5],0.409
same,glycan array binding signal (z-score),[6],-0.252
same,glycan array binding signal (z-score),[7],0.359
same,glycan array binding signal (z-score),[8],-0.744
same,glycan array binding signal (z-score),[9],-0.192
same,glycan array binding signal (z-score),Neu5Ac(a2-6)GalNAc,-0.637
same,glycan array binding signal (z-score),[10],-0.788
same,glycan array binding signal (z-score),[11],0.085
same,glycan array binding signal (z-score),[12],1.91
same,glycan array binding signal (z-score),Neu5Ac(a2-8)Neu5Ac,0.369
same,glycan array binding signal (z-score),[13],0.341
same,glycan array binding signal (z-score),[14],-0.758
same,glycan array binding signal (z-score),[15],1.55
same,glycan array binding signal (z-score),[16],-0.55
same,glycan array binding signal (z-score),[17],-1.34
same,glycan array binding signal (z-score),[18],-1.22
same,glycan array binding signal (z-score),[19],-0.894
same,glycan array binding signal (z-score),[20],0.148
same,glycan array binding signal (z-score),[21],-0.789
same,glycan array binding signal (z-score),Neu5Ac(b2-6)GalNAc,-1.02
same,glycan array binding signal (z-score),[22],-1.22
same,glycan array binding signal (z-score),[23],-0.901
same,glycan array binding signal (z-score),[24],-0.778
same,glycan array binding signal (z-score),[25],-0.289
same,glycan array binding signal (z-score),[26],-1.28
same,glycan array binding signal (z-score),Neu5Gc(a2-3)Gal(b1-4)Glc,-0.51
same,glycan array binding signal (z-score),[27],-1.32
same,glycan array binding signal (z-score),[28],-1.06
same,glycan array binding signal (z-score),[29],-0.534
same,glycan array binding signal (z-score),Neu5Gc(a2-6)GalNAc,1.01
same,glycan array binding signal (z-score),[30],0.414
